Reference: publication PMC2890605
Results are given in words; binding and its absence hold for the method and conditions named. Binding seen in cells or lysates may run through a third protein.

Target: CAN/Nup214 (human (endogenous in HeLa)), P35658
Assay: co-IP; immunoprecipitates from mitotic HeLa cell extracts with anti-Nup214, anti-Nup88 or nonspecific rabbit antibodies (IgG); SDS/PAGE and immunoblotting; 500 ul extract per immunoprecipitation
Conditions: remark: other sources report otherwise

binding: no binding
B1: Nup153, P49790 1-1475 (protein)
chain: MASGAGGVGGGGGGKIRTRRCHQGPIKPYQQGRQQHQGILSRVTESVKNIVPGWLQRYFNKNEDVCSCSTDTSEVPRWPENKEDHLVYADEESSNITDGRITPEPAVSNTEEPSTTSTASNYPDVLTRPSLHRSHLNFSMLESPALHCQPSTSSAFPIGSSGFSLVKEIKDSTSQHDDDNISTTSGFSSRASDKDITVSKNTSLPPLWSPEAERSHSLSQHTATSSKKPAFNLSAFGTLSPSLGNSSILKTSQLGDSPFYPGKTTYGGAAAAVRQSKLRNTPYQAPVRRQMKAKQLSAQSYGVTSSTARRILQSLEKMSSPLADAKRIPSIVSSPLNSPLDRSGIDITDFQAKREKVDSQYPPVQRLMTPKPVSIATNRSVYFKPSLTPSGEFRKTNQRIDNKCSTGYEKNMTPGQNREQRESGFSYPNFSLPAANGLSSGVGGGGGKMRRERTRFVASKPLEEEEMEVPVLPKISLPITSSSLPTFNFSSPEITTSSPSPINSSQALTNKVQMTSPSSTGSPMFKFSSPIVKSTEANVLPPSSIGFTFSVPVAKTAELSGSSSTLEPIISSSAHHVTTVNSTNCKKTPPEDCEGPFRPAEILKEGSVLDILKSPGFASPKIDSVAAQPTATSPVVYTRPAISSFSSSGIGFGESLKAGSSWQCDTCLLQNKVTDNKCIACQAAKLSPRDTAKQTGIETPNKSGKTTLSASGTGFGDKFKPVIGTWDCDTCLVQNKPEAIKCVACETPKPGTCVKRALTLTVVSESAETMTASSSSCTVTTGTLGFGDKFKRPIGSWECSVCCVSNNAEDNKCVSCMSEKPGSSVPASSSSTVPVSLPSGGSLGLEKFKKPEGSWDCELCLVQNKADSTKCLACESAKPGTKSGFKGFDTSSSSSNSAASSSFKFGVSSSSSGPSQTLTSTGNFKFGDQGGFKIGVSSDSGSINPMSEGFKFSKPIGDFKFGVSSESKPEEVKKDSKNDNFKFGLSSGLSNPVSLTPFQFGVSNLGQEEKKEELPKSSSAGFSFGTGVINSTPAPANTIVTSENKSSFNLGTIETKSASVAPFTCKTSEAKKEEMPATKGGFSFGNVEPASLPSASVFVLGRTEEKQQEPVTSTSLVFGKKADNEEPKCQPVFSFGNSEQTKDENSSKSTFSFSMTKPSEKESEQPAKATFAFGAQTSTTADQGAAKPVFSFLNNSSSSSSTPATSAGGGIFGSSTSSSNPPVATFVFGQSSNPVSSSAFGNTAESSTSQSLLFSQDSKLATTSSTGTAVTPFVFGPGASSNNTTTSGFGFGATTTSSSAGSSFVFGTGPSAPSASPAFGANQTPTFGQSQGASQPNPPGFGSISSSTALFPTGSQPAPPTFGTVSSSSQPPVFGQQPSQSAFGSGTTPNSSSAFQFGSSTTNFNFTNNSPSGVFTFGANSSTPAASAQPSGSGGFPFNQSPAAFTVGSNGKNVFSSSGTSFSGRKIKTAVRRRK
